Screen size: about 390,000 compounds; about 820 (0.21%) were called active. Inconclusive means that the source gave no clear call. Such entries were picked first, then a sample of the others. Calls follow the shape of the dose curve; as a rule, active = well fitted inhibition curve with a large enough effect; inconclusive = small, poorly fitted or top-dose-only effect, or another doubt; inactive = no such curve, though single readings can be large or run the other way. Where the call is inconclusive, the potency comes from a doubtful curve fit.
Target: Histone acetyltransferase KAT2A (Homo sapiens) (UniProt Q92830)
Experiment: qHTS Assay for Inhibitors of GCN5L2
Conditions: GCN5L2 HAT assay, ThioGlo1 CoA-SH fluorescence; activity change, negative = inhibition: at 58.9 µM (top of the series) unless noted
Procedure, shortened: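 ThioGlo1-coupled HAT assay: 20nM GCN5L2, 70uM acetyl-CoA, 75uM H3(1-25) peptide, pH 7.5. Fluorescence read at 340/540nm at start and after 20 min at room temperature.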
% is scaled to controls: 0 for no effect and ±100 for the full control effect; potency is read from the fitted curve at half-maximal effect.

Amino acid sequences for entries named in this document (tags omitted).
UniProt Q92830, whole entry, looked up: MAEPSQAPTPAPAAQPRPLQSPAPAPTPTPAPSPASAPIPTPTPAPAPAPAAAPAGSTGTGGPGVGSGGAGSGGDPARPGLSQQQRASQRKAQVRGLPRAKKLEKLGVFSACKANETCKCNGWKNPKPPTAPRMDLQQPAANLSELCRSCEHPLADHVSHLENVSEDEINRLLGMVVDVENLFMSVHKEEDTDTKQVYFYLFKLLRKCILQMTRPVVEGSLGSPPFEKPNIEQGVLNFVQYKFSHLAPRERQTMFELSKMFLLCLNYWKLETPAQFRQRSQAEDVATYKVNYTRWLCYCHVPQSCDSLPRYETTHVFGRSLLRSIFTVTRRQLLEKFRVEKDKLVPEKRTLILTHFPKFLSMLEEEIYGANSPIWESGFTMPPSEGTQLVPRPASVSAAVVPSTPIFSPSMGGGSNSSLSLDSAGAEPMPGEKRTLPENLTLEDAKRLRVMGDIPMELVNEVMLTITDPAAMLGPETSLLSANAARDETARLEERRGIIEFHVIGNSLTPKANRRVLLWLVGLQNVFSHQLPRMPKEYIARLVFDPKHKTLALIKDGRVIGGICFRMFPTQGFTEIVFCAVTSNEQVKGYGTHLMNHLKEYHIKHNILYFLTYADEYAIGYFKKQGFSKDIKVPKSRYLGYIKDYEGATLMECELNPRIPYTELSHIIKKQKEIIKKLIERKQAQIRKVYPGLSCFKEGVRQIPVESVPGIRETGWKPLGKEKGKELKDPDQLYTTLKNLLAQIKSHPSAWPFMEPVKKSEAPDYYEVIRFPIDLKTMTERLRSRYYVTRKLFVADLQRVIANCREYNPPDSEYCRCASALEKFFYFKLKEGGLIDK

**Q.** How did the Potency turn out when `Cc1ccccc1-n1cnnc1SCC(=O)Nc1cccnc1Cl` was run?
**A.** Its Potency is inconclusive: 0.708 µM [inhibitor, single point].

**Q.** Which “activity change, negative = inhibition” value does the source give for `O=C(c1ccc(Cl)c(S(=O)(=O)N2CCCCC2)c1)N1CCCCC1` here?
**A.** Its value is inactive: 1.4%.

**Q.** For `O=C(COC(=O)c1ccc(O)cc1O)NC1CCCCCC1`, which “activity change, negative = inhibition” value is on record?
**A.** The value was inactive: -0.158%.

**Q.** For `CN(C)c1cc(NC(=O)CNC(C)(C)C)c2ccccc2n1`, which Potency is on record?
**A.** The Potency was inconclusive: 3.16 µM [inhibitor, partial curve].

**Q.** How did the “activity change, negative = inhibition” value turn out when `Cc1ccc(C)c(NS(=O)(=O)c2ccc3oc(=O)ccc3c2)c1` was run?
**A.** The value was inactive: -1.83%.

**Q.** How did the “activity change, negative = inhibition” value turn out when `O=C(CCS(=O)(=O)c1ccc(Br)s1)Nc1cc(C(F)(F)F)cc(C(F)(F)F)c1` was run?
**A.** Its value is inactive: -23.3%.

**Q.** How did the Potency turn out when `COC(=O)[C@]1(C)N[C@H](c2ccc(-c3ccc(Cl)c(Cl)c3)c(OC)c2)[C@@H]2C(=O)N(C)C(=O)[C@@H]21` was run?
**A.** The Potency was inconclusive: 22.4 µM [inhibitor, partial curve, poor fit].

**Q.** With `COc1cc2nc(C)sc2cc1SC` as the compound, how does the “activity change, negative = inhibition” value read?
**A.** The value was inactive: -5.6%.

**Q.** Which Potency does the source give for `Cn1cc(/C=C2\SC(=S)N(NC(=O)c3cccc(Cl)c3)C2=O)c2ccccc21` here?
**A.** Its Potency is inconclusive: 28.2 µM [inhibitor, partial curve].

**Q.** `Cc1cccc(N2CC(C(=O)Nc3nnc(SCC(=O)NCC4CCCO4)s3)CC2=O)c1` (configuration not stated) was tested. Which Potency did it give?
**A.** The Potency was inconclusive: 10 µM [inhibitor, partial curve].

**Q.** For `Cc1ccc(S(=O)(=O)Nc2cc(Cl)c3oc4c(c3c2)CCCC4)cc1`, which Potency is on record?
**A.** The Potency was inconclusive: 35.5 µM [inhibitor, partial curve].

**Q.** With `Cc1c(C(=O)N(C)CCc2cnn(C)c2)oc2c(F)cccc12` as the compound, how does the Potency read?
**A.** Its Potency is inconclusive: 0.316 µM [inhibitor, full curve].

**Q.** For `Nc1ccc2c(C(F)(F)F)cc(=O)oc2c1`, which Potency is on record?
**A.** The Potency was inconclusive: 20 µM [inhibitor, partial curve].

**Q.** Which “activity change, negative = inhibition” value does the source give for `O=c1c2ccccc2c(C=Nc2ccccc2O)c(O)n1-c1nccs1` here?
**A.** The value was inactive: -13.2%.

**Q.** Which “activity change, negative = inhibition” value does the source give for `CC[C@]12c3[nH]c4cc(-c5ccco5)ccc4c3CCN1C(=O)[C@@H](CC(=O)NCc1ccco1)C[C@@H]2C(=O)N1CCN(C(=O)c2ccco2)CC1` here?
**A.** The value was inactive: -4.53%.

**Q.** `CCCCN(CCCC)S(=O)(=O)c1ccc(NC(=O)Cc2cccs2)cc1` was tested. Which Potency did it give?
**A.** The Potency was inconclusive: 31.6 µM [inhibitor, single point].

**Q.** `C=CCOc1ccccc1/C=C/C(=O)O` was tested. Which Potency did it give?
**A.** The Potency was inconclusive: 1 µM [inhibitor, full curve, poor fit].

**Q.** `Cc1cc(C2C(C#N)=C(N)SC(N)=C2C#N)c(C)s1` was tested. Which “activity change, negative = inhibition” value did it give?
**A.** Its value is inactive: -25%.

**Q.** With `CC(=O)Nc1ccc(N=Cc2c(O)c(C(=O)Nc3ccccc3)cc3ccccc23)cc1` as the compound, how does the “activity change, negative = inhibition” value read?
**A.** The value was inactive: -2.71%.

**Q.** With `CCOc1cccc(CN2CCCC(C(=O)c3cccc(C(F)(F)F)c3)C2)c1O` (configuration not stated) as the compound, how does the “activity change, negative = inhibition” value read?
**A.** The value was inactive: -2.57%.

**Q.** Which Potency does the source give for `COc1ccc(C2N(c3cc(C)on3)C(=O)C3CCCN32)cc1OC` (configuration not stated) here?
**A.** Its Potency is inconclusive: 0.794 µM [inhibitor, single point].

**Q.** For `O=C1CC(N(O)C2CC(=O)N(Cc3ccccc3)C2=O)C(=O)N1Cc1ccccc1` (configuration not stated), which “activity change, negative = inhibition” value is on record?
**A.** The value was inactive: -4.12%.

**Q.** `Cc1nc([N+](=O)[O-])c(Br)n1Cc1ccccc1` was tested. Which “activity change, negative = inhibition” value did it give?
**A.** The value was inactive: -1.2%.

**Q.** How did the Potency turn out when `COC(=O)[C@H]1C(OC)[C@@H](OC(=O)c2cc(OC)c(OC)c(OC)c2)C[C@@H]2CN3CCc4c([nH]c5cc(OC)ccc45)[C@H]3C[C@H]21` (some centres not stated) was run?
**A.** Its Potency is inconclusive: 44.7 µM [inhibitor, partial curve, poor fit].

**Q.** How did the Potency turn out when `C=CCC(NCc1ccco1)c1ccc(OC)cc1` (configuration not stated) was run?
**A.** The Potency was inconclusive: 0.708 µM [inhibitor, single point].

**Q.** How did the Potency turn out when `COc1ccc(C(=O)N2CC(c3ccccc3)CC2=O)cc1` (configuration not stated) was run?
**A.** Its Potency is inconclusive: 0.282 µM [inhibitor, full curve].

**Q.** Which Potency does the source give for `CCc1nnc(NC(=O)CCC(=O)NCc2ccc(C)cc2)s1` here?
**A.** Its Potency is inconclusive: 0.1 µM [inhibitor, full curve, poor fit].

**Q.** `CC1CCCN(c2ccc([N+](=O)[O-])s2)C1` (configuration not stated) was tested. Which Potency did it give?
**A.** The Potency was inconclusive: 39.8 µM [inhibitor, single point].

**Q.** `O=c1[nH][nH]c2c(N=Cc3ccccc3O)ccc(F)c12` was tested. Which Potency did it give?
**A.** The Potency was inconclusive: 39.8 µM [inhibitor, single point].

**Q.** How did the Potency turn out when `O=C(CN1CCCCCC1)Nc1ccc(Br)cc1Br` was run?
**A.** Its Potency is inconclusive: 39.8 µM [inhibitor, single point].

**Q.** `CCc1c(C)sc(NC(=O)c2cc3nc(-c4ccc(OC)cc4)cc(C(F)(F)F)n3n2)c1C(=O)OC` was tested. Which “activity change, negative = inhibition” value did it give?
**A.** Its value is inactive: -1.96%.

**Q.** How did the “activity change, negative = inhibition” value turn out when `O=C(CC(=O)Nc1cccc(F)c1)Nc1cccc(F)c1` was run?
**A.** The value was inactive: 0.505%.

**Q.** Which Potency does the source give for `CSc1nnc2c3cc(F)ccc3n(C)c2n1` here?
**A.** The Potency was inconclusive: 31.6 µM [inhibitor, single point].

**Q.** Which Potency does the source give for `COc1ccc(NS(=O)(=O)c2c(C)n(C)c(=O)n(C)c2=O)cc1` here?
**A.** The Potency was inconclusive: 31.6 µM [inhibitor, single point].

**Q.** With `CC(Sc1nnc(COc2ccc(Cl)cc2)n1Cc1ccco1)C(=O)N1CCNC1=O` (configuration not stated) as the compound, how does the “activity change, negative = inhibition” value read?
**A.** Its value is inactive: 2.16%.

**Q.** With `Cc1nn(-c2ccccc2)c(OC(=O)c2ccc(Cl)cc2)c1S(=O)(=O)c1ccccc1` as the compound, how does the “activity change, negative = inhibition” value read?
**A.** The value was inactive: -0.0959%.

**Q.** For `Cc1ccc(C(C)C)c(OCCCn2ccnc2C)c1`, which Potency is on record?
**A.** The Potency was inconclusive: 39.8 µM [inhibitor, single point].

**Q.** `CN(C)c1ccc(C(C#N)c2ccccc2)nn1` (configuration not stated) was tested. Which Potency did it give?
**A.** Its Potency is inconclusive: 0.794 µM [inhibitor, single point].

**Q.** `COc1ccc(CNS(=O)(=O)c2cc3c(cc2Cl)NC(=O)CO3)cc1` was tested. Which Potency did it give?
**A.** Its Potency is “inactive”.

**Q.** With `O=C(/C=C/c1cccc([N+](=O)[O-])c1)c1ccco1` as the compound, how does the Potency read?
**A.** The Potency was inconclusive: 28.2 µM [inhibitor, single point].

**Q.** `Cc1cccc(Oc2ccc(NC(=O)C3CC=CCC3C(=O)O)cc2)c1` (configuration not stated) was tested. Which “activity change, negative = inhibition” value did it give?
**A.** The value was inactive: -3.96%.

**Q.** `CCOc1cc(N2CCOCC2)c(OCC)cc1NC(=O)COc1ncnc2ccccc12` was tested. Which “activity change, negative = inhibition” value did it give?
**A.** The value was inactive: 0%.

**Q.** How did the Potency turn out when `COc1cccc(N2CC(C(=O)NNC(=O)c3ccc(Cl)cc3)CC2=O)c1` (configuration not stated) was run?
**A.** Its Potency is inconclusive: 1.78 µM [inhibitor, full curve, poor fit].

**Q.** With `CCC(=O)/C=C1\Sc2ccc(OC)cc2N1CC` as the compound, how does the “activity change, negative = inhibition” value read?
**A.** The value was inactive: -20.2%.

**Q.** How did the Potency turn out when `COc1ccccc1CNC(=O)Cc1ccccc1` was run?
**A.** Its Potency is inconclusive: 7.08 µM [inhibitor, single point].

**Q.** For `O=c1c(NCCc2ccccc2)c(-c2ccccc2)c1=O`, which Potency is on record?
**A.** Its Potency is inconclusive: 6.31 µM [inhibitor, single point].

**Q.** With `O=C(Nc1ccc(S(=O)(=O)NC2=NCCCCC2)cc1)c1ccc(Cl)c([N+](=O)[O-])c1` as the compound, how does the “activity change, negative = inhibition” value read?
**A.** The value was inactive: -1.13%.
